{"source": "PubChem BioAssay AID1224830 (NIAID, 2016)", "purpose": "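Genes whose knock-down alters the TNF-alpha reporter response to LPS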 (primary screen)", "cells": "human THP-1 monocytic leukaemia cells, TNF dual-luciferase reporter clone, PMA-differentiated to macrophage-like cells", "knock-down reagent": "siRNA pool against human genes, 50 nM", "duration": "LPS for 4 h, given about 3 days after siRNA transfection", "conditions": "bacterial LPS (TLR4 ligand), 10 ng/ml", "read-out": "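Ratio of firefly to renilla light, scaled to the plate median and expressed as a robust z-score per replicate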", "scale": "TNF reporter robust z-score: higher = stronger TNF reporter response to LPS", "rule for the call": "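a well is active when its z-score exceeds 2.8 or falls below -1.5; control wells carry no call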", "note": "This is an unselected part of about 18,000 reagents. Over the whole deposit, about 2,900 (16%) got an active call. 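Calls are made per well; low scores hint the gene aids the LPS response, high scores that it dampens it.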 A number with no mark means an inactive call. Repeated entries: four replicate wells of each siRNA pool. Reagent sequences are not shown."}
{"gene symbol": "LOC644006", "TNF reporter robust z-score": 0.53}
{"gene symbol": "LOC644006", "TNF reporter robust z-score": 0.12}
{"gene symbol": "LOC644006", "TNF reporter robust z-score": 1.17}
{"gene symbol": "LOC644006", "TNF reporter robust z-score": 1.42}
{"gene symbol": "H2AB3", "TNF reporter robust z-score": 0.31}
{"gene symbol": "H2AB3", "TNF reporter robust z-score": 0.68}
{"gene symbol": "H2AB3", "TNF reporter robust z-score": 1.05}
{"gene symbol": "H2AB3", "TNF reporter robust z-score": 1.73}
{"gene symbol": "ARHGEF18", "TNF reporter robust z-score": 0.34}
{"gene symbol": "ARHGEF18", "TNF reporter robust z-score": 0.71}
{"gene symbol": "ARHGEF18", "TNF reporter robust z-score": 0.19}
{"gene symbol": "ARHGEF18", "TNF reporter robust z-score": -0.3}
{"gene symbol": "RAG2", "TNF reporter robust z-score": 0.65}
{"gene symbol": "RAG2", "TNF reporter robust z-score": 1}
{"gene symbol": "RAG2", "TNF reporter robust z-score": -1.31}
{"gene symbol": "RAG2", "TNF reporter robust z-score": 1.66}
{"gene symbol": "AMIGO1", "TNF reporter robust z-score": 2.28}
{"gene symbol": "AMIGO1", "TNF reporter robust z-score": 0.27}
{"gene symbol": "AMIGO1", "TNF reporter robust z-score": 0.8}
{"gene symbol": "AMIGO1", "TNF reporter robust z-score": 0.04}
{"gene symbol": "PPP1R16B", "TNF reporter robust z-score": -0.74}
{"gene symbol": "PPP1R16B", "TNF reporter robust z-score": -0.3}
{"gene symbol": "PPP1R16B", "TNF reporter robust z-score": 0.26}
{"gene symbol": "PPP1R16B", "TNF reporter robust z-score": -0.08}
{"gene symbol": "GUCY1A1", "TNF reporter robust z-score": 0.3}
{"gene symbol": "GUCY1A1", "TNF reporter robust z-score": -1.1}
{"gene symbol": "GUCY1A1", "TNF reporter robust z-score": 0.4}
{"gene symbol": "GUCY1A1", "TNF reporter robust z-score": -0.42}

7 neighbouring entries already listed, for reference:
{"gene symbol": "PPP1R16B", "TNF reporter robust z-score": -0.74}
{"gene symbol": "PPP1R16B", "TNF reporter robust z-score": -0.3}
{"gene symbol": "PPP1R16B", "TNF reporter robust z-score": 0.26}
{"gene symbol": "PPP1R16B", "TNF reporter robust z-score": -0.08}
{"gene symbol": "GUCY1A1", "TNF reporter robust z-score": 0.3}
{"gene symbol": "GUCY1A1", "TNF reporter robust z-score": -1.1}
{"gene symbol": "GUCY1A1", "TNF reporter robust z-score": 0.4}

The list goes on:
{"gene symbol": "GNG2", "TNF reporter robust z-score": 0.02}
{"gene symbol": "GNG2", "TNF reporter robust z-score": 0.87}
{"gene symbol": "GNG2", "TNF reporter robust z-score": 0.33}
{"gene symbol": "GNG2", "TNF reporter robust z-score": 0.53}
{"gene symbol": "UPP2", "TNF reporter robust z-score": 0.62}
{"gene symbol": "UPP2", "TNF reporter robust z-score": 0.81}
{"gene symbol": "UPP2", "TNF reporter robust z-score": 0.98}
{"gene symbol": "UPP2", "TNF reporter robust z-score": 0.39}
{"gene symbol": "BTN3A2", "TNF reporter robust z-score": 0.87}
{"gene symbol": "BTN3A2", "TNF reporter robust z-score": 0.45}
{"gene symbol": "BTN3A2", "TNF reporter robust z-score": 0.26}
{"gene symbol": "BTN3A2", "TNF reporter robust z-score": -0.06}
{"gene symbol": "ADAMTSL5", "TNF reporter robust z-score": 2.05}
{"gene symbol": "ADAMTSL5", "TNF reporter robust z-score": 1.2}
{"gene symbol": "ADAMTSL5", "TNF reporter robust z-score": 0.94}
{"gene symbol": "ADAMTSL5", "TNF reporter robust z-score": 0.66}
{"gene symbol": "MTRF1", "TNF reporter robust z-score": -0.76}
{"gene symbol": "MTRF1", "TNF reporter robust z-score": -0.58}
{"gene symbol": "MTRF1", "TNF reporter robust z-score": -0.5}
{"gene symbol": "MTRF1", "TNF reporter robust z-score": -0.73}
{"gene symbol": "RBM5", "TNF reporter robust z-score": -0.92}
{"gene symbol": "RBM5", "TNF reporter robust z-score": -0.03}
{"gene symbol": "RBM5", "TNF reporter robust z-score": -0.36}
{"gene symbol": "RBM5", "TNF reporter robust z-score": -0.23}
{"gene symbol": "BUB1B", "TNF reporter robust z-score": -1.18}
{"gene symbol": "BUB1B", "TNF reporter robust z-score": -1.12}
{"gene symbol": "BUB1B", "TNF reporter robust z-score": -1.22}
{"gene symbol": "BUB1B", "TNF reporter robust z-score": -0.77}
{"gene symbol": "ARHGEF7", "TNF reporter robust z-score": -0.21}
{"gene symbol": "ARHGEF7", "TNF reporter robust z-score": 0.11}
{"gene symbol": "ARHGEF7", "TNF reporter robust z-score": -0.44}
{"gene symbol": "ARHGEF7", "TNF reporter robust z-score": -0.14}
